Measured values taken from PubChem BioAssay AID652054 (National Center for Advancing Translational Sciences (NCATS), 2013).
Screen size: about 360,000 compounds; about 9,100 (2.5%) were called active. Inconclusive results, whose numbers are uncertain, are shown with a selection of clear calls. Cut-off read from the data, not from the text of the source: active = max response below about -50%; inconclusive = no clear call, values can overlap the other calls; inactive = above that.

Sequences of proteins named here, by UniProt entry; tags and fusion partners are left off.
UniProt P35462, whole entry, looked up: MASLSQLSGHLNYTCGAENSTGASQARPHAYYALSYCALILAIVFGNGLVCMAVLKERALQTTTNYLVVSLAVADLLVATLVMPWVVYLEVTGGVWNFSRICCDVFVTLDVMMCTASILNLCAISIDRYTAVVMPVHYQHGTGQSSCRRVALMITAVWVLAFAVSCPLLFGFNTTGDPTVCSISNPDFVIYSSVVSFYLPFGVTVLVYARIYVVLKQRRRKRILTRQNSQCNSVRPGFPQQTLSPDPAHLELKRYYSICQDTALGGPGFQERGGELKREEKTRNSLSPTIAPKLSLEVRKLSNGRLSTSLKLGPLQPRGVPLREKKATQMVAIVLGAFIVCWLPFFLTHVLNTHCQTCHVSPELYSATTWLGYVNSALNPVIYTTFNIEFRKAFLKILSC

molecular target: D(3) dopamine receptor (Homo sapiens) (UniProt P35462); experiment: qHTS of D3 Dopamine Receptor Antagonist: qHTS; settings: D3R cells, DiscoveRx beta-arrestin luminescence, antagonist mode; stronger effect = lower value
Method in brief: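 Cells plated overnight at 1500 cells/well, then exposed to library compounds with dopamine controls for 90 minutes at 37 degrees C. DiscoveRx reagent added for 30–60 minutes at room temperature; luminescence read, quantitative HTS format.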
% is set by controls: 0 for no effect and ±100 for the full control effect.

Row | Compound | max response, negative = inhibition
1 | CNc1cc(-c2cc(OC)ccc2OC)ncn1 | inconclusive: -37.2%
2 | C(=N\c1nc2ccccc2[nH]1)/c1cccs1 | active: -56.6%
3 | COc1cc(SC)ccc1C(=O)Nc1nc2ccccc2[nH]1 | inactive: -2.78%
4 | CCOc1ccc(NC(=O)c2ccc(CSc3nnnn3C)cc2)cc1 | inconclusive: -35.5%
5 | CC1(C)CC(=O)C2=C(C1)N=C1SCCC(=O)N1C2c1ccc(C(F)(F)F)cc1 (stereo not drawn) | active: -94.4%
6 | CCN(CC(=O)Nc1c(F)cccc1F)C(=O)c1nc2nccc(C)n2n1 | inconclusive: -31%
7 | O=[N+]([O-])c1ccc(N/N=C/c2sc(N3CCOCC3)nc2-c2ccccc2)c(S(=O)(=O)Nc2ccc(Cl)cc2)c1 | active: -70.1%
8 | COc1ccc(/C(O)=C/c2nc3ccccc3n(-c3ccccc3)c2=O)cc1 | inactive: -18%
9 | O=C(NCc1cccnc1)c1cccc2c1C(=O)N(Cc1cccnc1)C2 | inconclusive: -36.4%
10 | c1cnc(N2CCN(Cc3c[nH]c4ccccc34)CC2)nc1 | active: -50.8%
11 | Cc1cc(F)ccc1NC(=O)CCCN(C)S(=O)(=O)c1ccc(F)cc1 | inactive: -3.24%
12 | O=S(=O)(Nc1ccccc1Cl)c1ccc(F)cc1 | inconclusive: -32.4%
13 | O=C(CSc1ncc(C(F)(F)F)cc1Cl)N1CCN(S(=O)(=O)c2ccccc2)CC1 | inconclusive: -30.5%
14 | Cc1ccc(Cl)cc1-c1cc(C(=O)NCc2cccc(Cl)c2)[nH]n1 | inconclusive: -33.2%
15 | COc1c(C(=O)Nc2ccc(Cc3ccncc3)cc2)ccc2ccccc12 | inactive: 10.6%
16 | COc1ccc(CC2(CO)CCN(C(C)COc3ccccc3)CC2)cc1 (stereo not drawn) | inconclusive: -37.1%
17 | COc1cccc(-c2c(-c3ccccc3OC)ncn2Cc2cccc(-c3ccccc3)c2)c1 | inconclusive: -31.8%
18 | CCCCCNC(=O)C(CCc1ccccc1)n1c(=O)c(-c2cc3ccccc3[nH]2)nc2ccccc21 (stereo not drawn) | inactive: 16.6%
19 | CCN(CC)S(=O)(=O)c1cc(C(=O)N(C)CC(=O)Nc2ccc(Cl)cc2)ccc1Cl | inconclusive: -35.9%
20 | O=C1CCN1C1(C(=O)NC2CCCCC2)CCCC1 | inactive: -10.1%
21 | O=C(CSc1nnc(C2CC2)n1C1CC1)c1ccc(Br)s1 | active: -65.1%
22 | O=C(O)CN(C1CCCCC1)S(=O)(=O)c1ccc(F)cc1 | inactive: 45.7%

An excerpt from above in order of SMILES length, largest number first.
Row | Compound | max response, negative = inhibition
22 | O=C(O)CN(C1CCCCC1)S(=O)(=O)c1ccc(F)cc1 | inactive: 45.7%
3 | COc1cc(SC)ccc1C(=O)Nc1nc2ccccc2[nH]1 | inactive: -2.78%
1 | CNc1cc(-c2cc(OC)ccc2OC)ncn1 | inconclusive: -37.2%

Going on with the list.

Row | Compound | max response, negative = inhibition
23 | Cn1c(C(=O)NCCN2CCc3ccccc3C2)cc2c(=O)[nH]c3ccccc3c21 | active: -59.2%
24 | C/C(CC(=O)Nc1cc(C)ccn1)=N\NC(=O)c1cccc(C)c1 | inactive: -10.9%
25 | COc1ccc([C@@H]2CC=C(C(=O)O)[C@H](c3ccccc3)N2S(=O)(=O)c2ccccc2C)cc1 | inconclusive: -43%
26 | Cn1cc(/C=C(\C#N)C(=O)Nc2ncc(Cc3ccc(Cl)cc3)s2)c2ccccc21 | inconclusive: -31.1%
27 | CC(NS(=O)(=O)OCC(Cl)(Cl)Cl)c1ccc(Br)cc1 (stereo not drawn) | inconclusive: -32.7%
28 | C/C(CCc1ccco1)=N\NC(=O)CNc1c(Br)cc(Br)cc1Br | inactive: 12.9%
29 | COc1ccc(Cc2nnc(Nc3ccc(C)cc3C)[nH]c2=O)cc1 | active: -61%
30 | CCOc1cc(N2CCOCC2)c(OCC)cc1NC(=O)Cc1ccc(OC)c(OC)c1 | inactive: 3.42%
31 | Cc1ccc(-c2nnc(Sc3nc4ccccc4o3)c3ccccc23)cc1 | inconclusive: -49.7%
32 | CCc1cc(C(=O)N/N=C/c2ccc(OC)cc2)c2ccccc2n1 | inactive: -10%
33 | O=C(O)CCC(=O)N1CCOc2ccc(Cl)cc21 | inconclusive: -44.3%
35 | Cc1ccc(-n2nc(C(=O)N3CCOCC3)cc2-c2ccc(Cl)cc2)cc1 | inconclusive: -47.4%
36 | S=C1SCN(Cc2ccccc2)CN1Cc1ccco1 | inactive: 5.29%
37 | c1ccc2c(c1)ncn2CCOCCOCCn1cnc2ccccc21 | inconclusive: -39%
38 | O=C1CC(/C=C/c2cccnc2)=Nc2ccccc2N1 | inconclusive: -36.9%
39 | Cc1cc(SCC2=NNC(=O)C2)c(Cl)cc1Cl | inconclusive: -42.9%
40 | CCCn1nnc(NC(=O)c2cccnc2Cl)n1 | inconclusive: -43.7%
41 | O=C(NC1CC2CCCC(C1)N2Cc1cccs1)N1CCOCC1 (stereo not drawn) | inconclusive: -49.2%
42 | CCC[C@H]1CN(c2ccc(Br)cc2)C(=O)[C@@H]1CC(=O)Nc1ccc(OC)cc1 | inactive: 19.3%
43 | Cc1ccc(-n2c(SCC(=O)NCc3cccs3)nnc2-c2ccoc2C)cc1 | inconclusive: -30.4%
44 | CN(Cc1ccccc1)C(=O)C1CCN(Cc2ccc(F)cc2)CC1 | inconclusive: -47.1%

Row | Compound | max response, negative = inhibition
45 | COc1ccc2cc3c(N)c(C(=O)NCc4ccco4)sc3nc2c1 | active: -54.6%
46 | O=C(CCN1C(=O)/C(=C/c2ccco2)SC1=S)Nc1ccc(O)cc1C(=O)O | inconclusive: -40.9%
47 | CCN(CC)CCNC(=O)NC1CCCCC1 | inconclusive: -34.2%
48 | COc1ccc2c(CN3CCN(Cc4ccccc4)CC3)cc(=O)oc2c1 | active: -68.1%
49 | COc1c(Cl)cc(Cl)cc1C(=O)Nc1ccc(NC(C)=O)cc1 | inactive: 20.7%
50 | COc1ccc(-n2c(O)c(/C=N/NS(=O)(=O)c3ccc(C)cc3)c3ccccc3c2=O)cc1OC | inactive: 3.92%
51 | Cc1ccccc1NC(=O)NCCc1nc2ccccc2[nH]1 | inconclusive: -30.7%
52 | CCOc1ccccc1Nc1nnc(SCC(=O)Nc2cccc(S(=O)(=O)NC3=NCCCCC3)c2)s1 | inactive: 4.56%
53 | CCc1ccc(NC(=O)C2CCN(S(=O)(=O)c3c(C)noc3C)CC2)cc1 | inactive: -6.74%
54 | CCN(CC)c1ccc(/C=N/NS(=O)(=O)c2cccc([N+](=O)[O-])c2)cc1 | inconclusive: -32.9%
55 | O=C(Cc1cccs1)N(CC1CCCO1)C1(C(=O)NC2CCCC2)CCCCC1 (stereo not drawn) | inactive: -13.3%
56 | CCOC(=O)c1cnc(SC)nc1Sc1cc(Cl)ccc1Cl | inconclusive: -37.9%
57 | O=C(NCc1cccnc1)c1c(O)c2cccc3c2n(c1=O)CCC3 | inconclusive: -33.6%
58 | CCc1cccc(CC)c1NC(=O)CSc1nc2ccc(N3C(=O)C4C(C3=O)[C@H]3C=C[C@@H]4C3)cc2s1 (stereo partly drawn) | inactive: -12.4%
59 | COc1ccc(C(CC(=O)Nc2nccs2)n2cccc2)cc1 (stereo not drawn) | inconclusive: -32.6%
60 | CN(C)CCNC(=O)c1ccc(COc2ccc(Cl)cc2Cl)cc1 | inactive: -28.7%
61 | CN1CCN(C(=S)NCCc2ccccc2)CC1 | active: -87.1%
62 | Cc1ccsc1C1NC(=O)c2c(sc3c2CCN(C)C3)N1 (stereo not drawn) | inconclusive: -42.5%
63 | CC(/C=C1\SC(=S)N(NC(=O)c2ccc(C)cc2)C1=O)=C\c1ccccc1 | active: -51.9%
64 | S=C(Nc1cccc(Cl)c1)NC1CC2CCCC(C1)N2C1CCCC1 (stereo not drawn) | inactive: -29.2%
65 | Fc1ccccc1C1CC(c2ccco2)=Nc2ccccc2S1 (stereo not drawn) | inactive: -11.9%
66 | Cn1c(C(=O)OC(C(=O)NC2CCCCC2)c2cccnc2)cc2sccc21 (stereo not drawn) | inconclusive: -43.4%

Row | Compound | max response, negative = inhibition
67 | CN(C)c1ccc(NC(=O)Nc2ccc3snnc3c2)cc1 | inconclusive: -35.8%
68 | N#C/C(=C\C1=C(N2CCOCC2)C(=C/c2cccc([N+](=O)[O-])c2)/CC1)C(=O)Nc1ccccc1F | inconclusive: -32.4%
69 | CC(=O)c1cccc(NC(=O)COc2nsnc2N2CCOCC2)c1 | inconclusive: -31.4%
70 | COc1ccc(C)cc1NC(=O)CNC(c1ccccc1)c1ccc(C)cc1 (stereo not drawn) | inconclusive: -30.4%
71 | Clc1ccc2nc(-c3ccco3)c(Cc3ccsc3)n2c1 | active: -53.3%
72 | COc1cccc(Nc2ccc(C(=O)O)cc2[N+](=O)[O-])c1 | inconclusive: -36%
73 | CC(=O)c1ccc(NS(=O)(=O)c2ccc(CC(C)C)cc2)cc1 | inconclusive: -31%
74 | COc1cc(C2C(C(=O)c3ccco3)=C(O)C(=O)N2c2cc(C)on2)cc(Br)c1O (stereo not drawn) | active: -72.8%
75 | O=C(N/N=C/c1ccc2c(c1)OCO2)c1ccn(Cc2ccc(Cl)cc2)n1 | inconclusive: -36.8%
76 | Cc1ccc(NC(=O)CN(C)C(=O)COc2ccc(Br)cc2)cc1 | inconclusive: -44.5%
77 | COc1ccccc1NC(=O)CCN1CCN(Cc2ccccc2)CC1 | active: -54.8%
78 | O=C(N/N=C/c1ccco1)c1cc(-c2ccc3ccccc3c2)n[nH]1 | active: -74.9%
79 | COc1ccc(NC(=O)CCCn2c(=O)c3sccc3n(Cc3ccccc3C)c2=O)cc1 | inactive: 1.23%
80 | COc1ccc(C2CC(=O)Oc3c(C(CCN4CCN(c5ccccc5)CC4)c4ccc(N(C)C)cc4)c(OC)cc(OC)c32)cc1 (stereo not drawn) | active: -84.1%
81 | CCN1CCN(c2ccc(NC(=O)COc3ccc(Cl)cc3C)cc2)CC1 | active: -51.6%
82 | O=c1n(-c2ccccc2)c(=O)n2n1CCCC2 | inconclusive: -44.5%
83 | COc1cccc(NC(=O)N(CCCN2CCOCC2)C(C)c2cc3cccc(OC)c3o2)c1 (stereo not drawn) | inconclusive: -37.7%
84 | CCN(CC)S(=O)(=O)c1ccc(NC(=O)C(C)N(c2ccccc2)S(C)(=O)=O)cc1 (stereo not drawn) | inconclusive: -49.4%
85 | CCOC(=O)c1[nH]c2ccc(OC)cc2c1NC(=O)CCN1CCN(Cc2ccccc2)CC1 | active: -54.8%
86 | CCc1cccc2c(C(=O)CN3C(=O)NC(C)(c4cccc5ccccc45)C3=O)c[nH]c12 (stereo not drawn) | inconclusive: -38.6%
87 | O=C(Nc1nc(-c2ccco2)c(-c2ccco2)s1)C1CC(=O)N(c2ccc3c(c2)OCCO3)C1 (stereo not drawn) | inconclusive: -45.5%
88 | COCCN(C(=O)c1cc(-c2ccco2)nc2ccccc12)c1c(N)n(Cc2ccccc2)c(=O)[nH]c1=O | inactive: -3.21%

Pulled by compound from the entries so far (4):
Row | Compound | max response, negative = inhibition
39 | Cc1cc(SCC2=NNC(=O)C2)c(Cl)cc1Cl | inconclusive: -42.9%
22 | O=C(O)CN(C1CCCCC1)S(=O)(=O)c1ccc(F)cc1 | inactive: 45.7%
44 | CN(Cc1ccccc1)C(=O)C1CCN(Cc2ccc(F)cc2)CC1 | inconclusive: -47.1%
79 | COc1ccc(NC(=O)CCCn2c(=O)c3sccc3n(Cc3ccccc3C)c2=O)cc1 | inactive: 1.23%
